{"source": "PubChem BioAssay AID758", "about": "(NMMLSC, 2007)", "note": "In all, about 190,000 compounds went through this assay and about 110 (0.058%) were called active. This list was built around the results that the source calls inconclusive (neither active nor inactive); the mix of calls is not that of the screen.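 How the source made its calls: active means fluorescent GTP binding to Rab7 beads changed by at least 20 points from the 100% baseline, either direction, mostly lower; inconclusive means compound itself probably fluorescent, or too few beads counted; inactive means the rest.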", "data": [{"test_system": "Rab7 GTPase wild type (dog), Bodipy-FL-GTP binding", "assay": "modulators of GTP binding to Rab7, primary screen, biochemical, wildtype, multiplex bead flow cytometry (AID 758);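 further: median green fluorescence of bound Bodipy-FL-GTP per Rab7 bead population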", "details": "GST-Rab7 beads, fluorescent GTP binding, at 10 µM, actives lie on both sides, untreated = 100%, excess cold GTP = 0%", "values": [{"smiles": "COc1cc(NS(=O)(=O)c2ccc(NC(=S)NC(=O)c3sc4ccccc4c3Cl)cc2)nc(OC)n1", "GTP binding activity (percent of control)": "inconclusive: 90%"}]}]}
